Measured values: publication PMC5725455
Numbering of substitutions follows the chain as printed. Names and notes keep the numbering of the source. Results are given in words; binding and its absence hold for the method and conditions named. In cells and extracts the contact can be indirect. Some results given as binding are weak or reduced against the parent protein; the word gives no strength. For part of these data: Where a sequence is shown, tags or fusion partners need not be part of it.

What was measured:
HA-IKKβ, O14920 = target: T1, HA-IKKβ, O14920; assay: co-IP; HEK 293 cells co-transfected with HA-IKKβ and FLAG-TAK1 and 0.5, 1.0, 1.5 or 2.0 μg of FLAG-DUSP5 WT or C263S plasmid; lysates precipitated with anti-HA antibody and protein A/G beads; blot with anti-FLAG; details: remark: other sources report otherwise
T1 chain: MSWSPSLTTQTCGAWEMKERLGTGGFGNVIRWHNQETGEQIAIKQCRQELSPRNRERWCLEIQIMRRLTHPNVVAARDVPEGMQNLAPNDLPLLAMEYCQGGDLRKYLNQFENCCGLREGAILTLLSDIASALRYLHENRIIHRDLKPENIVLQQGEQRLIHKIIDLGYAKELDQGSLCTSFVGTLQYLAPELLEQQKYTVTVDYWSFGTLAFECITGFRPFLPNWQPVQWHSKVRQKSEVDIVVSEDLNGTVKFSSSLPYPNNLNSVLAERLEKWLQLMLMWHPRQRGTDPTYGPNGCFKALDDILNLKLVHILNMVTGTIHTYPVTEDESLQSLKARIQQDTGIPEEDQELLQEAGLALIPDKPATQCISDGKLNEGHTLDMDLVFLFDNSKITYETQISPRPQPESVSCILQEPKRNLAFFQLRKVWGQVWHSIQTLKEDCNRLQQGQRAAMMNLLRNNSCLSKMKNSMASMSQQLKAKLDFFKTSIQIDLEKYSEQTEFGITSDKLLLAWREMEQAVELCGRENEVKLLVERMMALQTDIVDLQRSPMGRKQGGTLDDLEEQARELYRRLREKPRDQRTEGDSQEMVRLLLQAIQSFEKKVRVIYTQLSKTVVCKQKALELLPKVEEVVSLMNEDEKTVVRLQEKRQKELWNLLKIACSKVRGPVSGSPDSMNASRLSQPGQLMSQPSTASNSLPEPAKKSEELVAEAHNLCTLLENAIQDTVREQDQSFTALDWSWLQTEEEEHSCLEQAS

HA-IKKβ = target: T2, HA-IKKβ (UniProt O14920); assay: as above
T2 sequence: T1 chain

[1] = target: T3, Dual-specificity phosphatase 5 (DUSP5), endogenous (mouse (endogenous in RAW 264.7 and MEF)) (UniProt Q1HL35); assay: co-IP; DUSP5 WT MEFs (DUSP5 KO MEFs as control); Supplementary Figure 4
T3 sequence: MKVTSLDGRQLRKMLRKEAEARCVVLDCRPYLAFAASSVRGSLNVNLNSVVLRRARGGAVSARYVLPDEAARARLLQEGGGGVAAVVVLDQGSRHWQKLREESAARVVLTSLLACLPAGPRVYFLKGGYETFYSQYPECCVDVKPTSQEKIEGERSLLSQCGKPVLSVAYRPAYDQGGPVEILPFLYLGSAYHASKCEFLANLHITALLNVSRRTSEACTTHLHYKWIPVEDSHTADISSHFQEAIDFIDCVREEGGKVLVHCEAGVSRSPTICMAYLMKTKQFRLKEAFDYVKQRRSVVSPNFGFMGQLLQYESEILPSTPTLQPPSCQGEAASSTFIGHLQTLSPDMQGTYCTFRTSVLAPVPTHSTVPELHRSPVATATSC

[2] = target: T3, Dual-specificity phosphatase 5 (DUSP5), endogenous (mouse (endogenous in RAW 264.7 and MEF)); assay: co-IP; lysates of LPS-treated RAW 264.7 cells precipitated with anti-DUSP5 antibody (or goat pre-immune IgG) and protein A/G beads; blots with anti-IκBα, anti-IKKα/β and anti-TAK1

B1: FLAG-tagged TAK1, O43318 1-606 (enzyme)
chain: MSTASAASSSSSSSAGEMIEAPSQVLNFEEIDYKEIEVEEVVGRGAFGVVCKAKWRAKDVAIKQIESESERKAFIVELRQLSRVNHPNIVKLYGACLNPVCLVMEYAEGGSLYNVLHGAEPLPYYTAAHAMSWCLQCSQGVAYLHSMQPKALIHRDLKPPNLLLVAGGTVLKICDFGTACDIQTHMTNNKGSAAWMAPEVFEGSNYSEKCDVFSWGIILWEVITRRKPFDEIGGPAFRIMWAVHNGTRPPLIKNLPKPIESLMTRCWSKDPSQRPSMEEIVKIMTHLMRYFPGADEPLQYPCQYSDEGQSNSATSTGSFMDIASTNTSNKSDTNMEQVPATNDTIKRLESKLLKNQAKQQSESGRLSLGASRGSSVESLPPTSEGKRMSADMSEIEARIAATTAYSKPKRGHRKTASFGNILDVPEIVISGNGQPRRRSIQDLTVTGTEPGQVSSRSSSPSVRMITTSGPTSEKPTRSHPWTPDDSTDTNGSDNSIPMAYLTLDHQLQPLAPCPNSKESMAVFEQHCKMAQEYMKVQTEIALLLQRKQELVAELDQDEKDQQNTSRLVQEHKKLLDENKSLSTYYQQCKKQLEVIRSQQQKRQGTS
For B1, the binding (HA-IKKβ, O14920) was “binds”.

B2: FLAG-tagged DUSP5 wild type (enzyme, UniProt Q16690 1-384)
chain: MKVTSLDGRQLRKMLRKEAAARCVVLDCRPYLAFAASNVRGSLNVNLNSVVLRRARGGAVSARYVLPDEAARARLLQEGGGGVAAVVVLDQGSRHWQKLREESAARVVLTSLLACLPAGPRVYFLKGGYETFYSEYPECCVDVKPISQEKIESERALISQCGKPVVNVSYRPAYDQGGPVEILPFLYLGSAYHASKCEFLANLHITALLNVSRRTSEACATHLHYKWIPVEDSHTADISSHFQEAIDFIDCVREKGGKVLVHCEAGISRSPTICMAYLMKTKQFRLKEAFDYIKQRRSMVSPNFGFMGQLLQYESEILPSTPNPQPPSCQGEAAGSSLIGHLQTLSPDMQGAYCTFPASVLAPVPTHSTVSELSRSPVATATSC
For B2, the binding (HA-IKKβ) was “binds”.

B3: FLAG-tagged DUSP5 C263S (catalytically inactive mutant) (enzyme, UniProt Q16690 1-384)
chain: B2 chain with C263S
With B3 the binding (HA-IKKβ) was “binds”.

B4: IκB kinase alpha (IKKα), endogenous (enzyme, UniProt Q60680 1-745)
chain: MERPPGLRPGAGGPWEMRERLGTGGFGNVSLYQHRELDLKIAIKSCRLELSSKNRERWCHEIQIMKKLDHANVVKACDVPEELNFLINDVPLLAMEYCSGGDLRKLLNKPENCCGLKESQILSLLSDIGSGIRYLHENKIIHRDLKPENIVLQDVGGKTIHKIIDLGYAKDVDQGSLCTSFVGTLQYLAPELFENKPYTATVDYWSFGTMVFECIAGYRPFLHHLQPFTWHEKIKKKDPKCIFACEEMTGEVRFSSHLPQPNSLCSLIVEPMESWLQLMLNWDPQQRGGPIDLTLKQPRCFALMDHILNLKIVHILNMTSAKIISFLLPCDESLHSLQSRIERETGINTGSQELLSETGISLDPRKPASQCVLDGVRGCDSYMVYLFDKSKTVYEGPFASRSLSDCVNYIVQDSKIQLPIIQLRKVWAEAVHYVSGLKEDYSRLFQGQRAAMLSLLRYNANLTKMKNTLISASQQLKAKLEFFRKSIQLDLERYSEQMTYGISSEKMLKAWKEMEEKAIHYSEVGVIGYLEDQIMSLHTEIMELQKSPYGRRQGDLMESLEQRAIDLYKQLKHRPPDHLYSDSTEMVKIIVHTVQSQDRVLKELFGHLSKLLGCKQKIIDLLPKVEVALSNIKEADNTVMFMQGKRQKEIWHLLKIACTQSSARSLVGSSLEGTVTPPVSAWLPPTLADREHPLTCVVTPQDGETLAQMIEENLNCLGHLSTIIREANEDQSSSLMSLDWSWLAE
In the case of B4, the binding [1] is reported as “binds” and the binding [2] is reported as “binds”.

B5: IκB kinase beta (IKKβ), endogenous (enzyme, UniProt O88351 1-757)
chain: MSWSPSLPTQTCGAWEMKERLGTGGFGNVIRWHNQATGEQIAIKQCRQELSPKNRNRWCLEIQIMRRLNHPNVVAARDVPEGMQNLAPNDLPLLAMEYCQGGDLRRYLNQFENCCGLREGAVLTLLSDIASALRYLHENRIIHRDLKPENIVLQQGEKRLIHKIIDLGYAKELDQGSLCTSFVGTLQYLAPELLEQQKYTVTVDYWSFGTLAFECITGFRPFLPNWQPVQWHSKVRQKSEVDIVVSEDLNGAVKFSSSLPFPNNLNSVLAERLEKWLQLMLMWHPRQRGTDPQYGPNGCFRALDDILNLKLVHVLNMVTGTVHTYPVTEDESLQSLKTRIQENTGILETDQELLQKAGLVLLPDKPATQCISDSKTNEGLTLDMDLVFLLDNSKINYETQITPRPPPESVSCILQEPKRNLSFFQLRKVWGQVWHSIQTLKEDCNRLQQGQRAAMMSLLRNNSCLSKMKNAMASTAQQLKAKLDFFKTSIQIDLEKYKEQTEFGITSDKLLLAWREMEQAVEQCGRENDVKHLVERMMALQTDIVDLQRSPMGRKQGGTLDDLEEQARELYRKLREKPRDQRTEGDSQEMVRLLLQAIQSFEKKVRVIYTQLSKTVVCKQKALELLPKVEEVVSLMNEDERTVVRLQEKRQKELWNLLKIACSKVRGPVSGSPDSMNVSRLSHPGQLMSQPSSACDSLPESDKKSEELVAEAHALCSRLESALQDTVKEQDRSFTTLDWSWLQMEDEERCSLEQACD
In the case of B5, the binding [1] is reported as “binds” and the binding [2] is reported as “binds”.

B6: Transforming growth factor beta-activated kinase 1 (TAK1), endogenous (enzyme, UniProt Q62073 1-579)
chain: MSTASAASSSSSSSASEMIEAPSQVLNFEEIDYKEIEVEEVVGRGAFGVVCKAKWRAKDVAIKQIESESERKAFIVELRQLSRVNHPNIVKLYGACLNPVCLVMEYAEGGSLYNVLHGAEPLPYYTAAHAMSWCLQCSQGVAYLHSMQPKALIHRDLKPPNLLLVAGGTVLKICDFGTACDIQTHMTNNKGSAAWMAPEVFEGSNYSEKCDVFSWGIILWEVITRRKPFDEIGGPAFRIMWAVHNGTRPPLIKNLPKPIESLMTRCWSKDPSQRPSMEEIVKIMTHLMRYFPGADEPLQYPCQYSDEGQSNSATSTGSFMDIASTNTSNKSDTNMEQVPATNDTIKRLESKLLKNQAKQQSESGRLSLGASRGSSVESLPPTSEGKRMSADMSEIEARIVATAGNGQPRRRSIQDLTVTGTEPGQVSSRSSSPSVRMITTSGPTSEKPARSHPWTPDDSTDTNGSDNSIPMAYLTLDHQLQPLAPCPNSKESMAVFEQHCKMAQEYMKVQTEIALLLQRKQELVAELDQDEKDQQNTSRLVQEHKKLLDENKSLSTYYQQCKKQLEVIRSQQQKRQGTS
For B6, the binding [1] was “binds” and the binding [2] was “binds”.
